The target of series [1] is T1, KlHIRAN (Kluyveromyces lactis) (UniProt Q6CJM4).
T1 sequence (looked up): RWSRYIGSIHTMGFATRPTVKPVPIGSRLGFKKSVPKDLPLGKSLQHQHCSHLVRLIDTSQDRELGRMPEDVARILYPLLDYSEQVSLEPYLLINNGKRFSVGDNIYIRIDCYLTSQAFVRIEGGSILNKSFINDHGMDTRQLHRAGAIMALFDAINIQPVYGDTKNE
Kind of series: fluorescence polarization. The conditions noted are these: 50 mM NaCl; FP: 20 mM Tris pH 7.5, 50 mM (dsDNA, KlHIRAN) or 70 mM (ssDNA) NaCl, 2 mM MgCl2, 1 nM DNA, room temp; recombinant protein; residues 174-341; protein details: intein-CBD cleaved off; label: 5'-FAM on D3a. (Fluorescence polarisation rises when a labelled molecule tumbles more slowly, as on binding a larger partner.)

Series [2] deals with T2, HLTF (Homo sapiens) (UniProt Q14527).
T2 sequence (looked up, limits assumed): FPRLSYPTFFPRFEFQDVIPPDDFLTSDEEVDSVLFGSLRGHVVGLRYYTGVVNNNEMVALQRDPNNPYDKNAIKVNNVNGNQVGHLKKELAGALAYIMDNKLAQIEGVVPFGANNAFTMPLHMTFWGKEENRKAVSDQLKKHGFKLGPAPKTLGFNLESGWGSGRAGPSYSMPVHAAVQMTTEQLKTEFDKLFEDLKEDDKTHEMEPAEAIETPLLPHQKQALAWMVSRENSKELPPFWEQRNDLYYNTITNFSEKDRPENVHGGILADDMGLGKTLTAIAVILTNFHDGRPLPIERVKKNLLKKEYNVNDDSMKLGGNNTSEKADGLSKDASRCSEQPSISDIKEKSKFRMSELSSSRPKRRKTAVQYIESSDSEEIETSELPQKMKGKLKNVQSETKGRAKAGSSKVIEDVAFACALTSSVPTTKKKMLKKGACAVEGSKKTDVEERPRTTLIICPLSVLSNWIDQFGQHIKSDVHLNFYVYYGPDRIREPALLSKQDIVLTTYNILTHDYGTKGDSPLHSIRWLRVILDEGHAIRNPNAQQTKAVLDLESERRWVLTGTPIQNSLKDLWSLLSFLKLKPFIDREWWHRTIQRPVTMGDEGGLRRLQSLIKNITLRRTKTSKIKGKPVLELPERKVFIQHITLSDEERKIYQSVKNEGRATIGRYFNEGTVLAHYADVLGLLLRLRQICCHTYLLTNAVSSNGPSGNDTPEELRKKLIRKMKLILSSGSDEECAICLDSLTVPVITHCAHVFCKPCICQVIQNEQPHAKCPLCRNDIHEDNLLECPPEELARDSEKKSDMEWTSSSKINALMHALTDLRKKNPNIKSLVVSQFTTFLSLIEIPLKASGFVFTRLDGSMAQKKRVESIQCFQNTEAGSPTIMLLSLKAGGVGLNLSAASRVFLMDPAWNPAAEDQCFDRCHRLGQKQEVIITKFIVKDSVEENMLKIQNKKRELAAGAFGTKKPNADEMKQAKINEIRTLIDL
Kind of series: pull-down. The conditions noted are these: 100 mM salt, free 3'-OH required; pull-down: 20 mM Tris pH 7.5, 50 mM NaCl, 4 C; recombinant protein; protein details: His (pET28a); label: 3'-biotin; single-stranded DNA.

Series [3] addresses T3, KlRad5 (Kluyveromyces lactis) (UniProt Q6CJM4).
T3 sequence (looked up): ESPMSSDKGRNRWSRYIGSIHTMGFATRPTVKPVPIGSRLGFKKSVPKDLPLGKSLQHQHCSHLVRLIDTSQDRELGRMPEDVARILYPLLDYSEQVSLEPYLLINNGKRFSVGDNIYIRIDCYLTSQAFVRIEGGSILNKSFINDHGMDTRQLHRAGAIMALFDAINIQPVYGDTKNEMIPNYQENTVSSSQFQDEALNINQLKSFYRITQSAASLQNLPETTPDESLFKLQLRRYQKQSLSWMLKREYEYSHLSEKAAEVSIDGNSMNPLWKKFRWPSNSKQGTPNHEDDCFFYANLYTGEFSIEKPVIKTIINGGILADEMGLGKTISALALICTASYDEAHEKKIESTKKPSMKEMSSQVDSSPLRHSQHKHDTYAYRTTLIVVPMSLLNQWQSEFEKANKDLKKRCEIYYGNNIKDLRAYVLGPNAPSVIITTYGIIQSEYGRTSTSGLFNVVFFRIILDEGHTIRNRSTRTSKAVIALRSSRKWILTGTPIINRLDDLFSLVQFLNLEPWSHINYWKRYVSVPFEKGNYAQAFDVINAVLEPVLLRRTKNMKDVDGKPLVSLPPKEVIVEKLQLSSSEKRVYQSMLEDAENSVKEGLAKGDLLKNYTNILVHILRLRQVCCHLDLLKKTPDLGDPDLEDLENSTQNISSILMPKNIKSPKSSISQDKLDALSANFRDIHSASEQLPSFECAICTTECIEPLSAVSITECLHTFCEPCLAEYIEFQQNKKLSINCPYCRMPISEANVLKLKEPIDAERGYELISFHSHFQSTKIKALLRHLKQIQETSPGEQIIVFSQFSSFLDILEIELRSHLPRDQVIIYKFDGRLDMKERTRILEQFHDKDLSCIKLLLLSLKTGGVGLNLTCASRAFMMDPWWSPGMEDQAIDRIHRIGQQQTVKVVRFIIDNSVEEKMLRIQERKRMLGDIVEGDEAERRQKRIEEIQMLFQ
Kind of series: fluorescence polarization. The conditions noted are these: 70 mM NaCl; FP: 20 mM Tris pH 7.5, 50 mM (dsDNA, KlHIRAN) or 70 mM (ssDNA) NaCl, 2 mM MgCl2, 1 nM DNA, room temp; recombinant protein; residues 163-1114; label: 5'-FAM; single-stranded DNA.

For part of these data: A negative result means that nothing was seen under these conditions. Protein sequences can lack the tags named with them. For part of these data: A weaker result is weaker than the reference pair of the same experiment. For part of these data: For at least one entry, the source does not settle the construct or the ends of the probe. For part of these data: At least one verdict was read from the data and is not stated in words by the source.

The values below come from PMC7804152, “Structural basis for the multi-activity factor Rad5 in replication stress tolerance”.

Consider “CAACGTCATAGACGATTACATTGCTACATGGAGCTGTCTAGAGGATCCGA (double strand) [D3a/D3b blunt dsDNA]”, for which the binding result in series [1] is listed as “binds more weakly”. Turning to “TTTTTTTTTTTTTTTTTTTTTTTTT [dT25, 3'-biotin]”, the binding result in series [2] is “no binding”. As to “TTTTTTTTTTTTTTTTTTTTTTTTT [dT25, 5'-FAM]”, the binding result in series [3] is given as “binds”.
